{"source": "patent US12729225B2", "about": "“Non-canonical SWI/SNF complex and uses thereof” (Dana-Farber Cancer Institute, Inc., priority 2018, dated 2026)", "molecules": {"B1": {"name": "SCAF8 (protein, UniProt Q9UPN6 1-1271, looked up)", "SR-related and CTD-associated …": "MEAVKTFNSELYSLNDYKPPISKAKMTQITKAAIKAIKFYKHVVQSVEKFIQKCKPEYKVPGLYVIDSIVRQSRHQFGQEKDVFAPRFSNNIISTFQNLYRCPGDDKSKIVRVLNLWQKNNVFKSEIIQPLLDMAAGIPPPVVTPVLASTTTAMSNTPGTPVTPVTPANVVQGLPDPWVSQITNTDTLAAVAQILQSPQGQQLQQLIQTLQIQQQKPQPSILQALDAGLVVQLQALTAQLTAAAAAANTLTPLEQGVSFNKKLMDRFDFGEDSEHSEEPKKEIPASQLSHVSESVNNSIFHQIAEQLQQQNLEHLRQQLLEQQQPQKATPQDSQEGTFGSEHSASPSQGSSQQHFLEPEVNLDDSIDIQQQDMDIDEGQDGVEEEVFEQEAKKVAVRSRSRTHSRSRSRSPRKRRSRSRSGSRKRKHRKRSRSRSRERKRKSSRSYSSERRAREREKERQKKGLPPIRSKTLSVCSTTLWVGQVDKKATQQDLTNLFEEFGQIESINMIPPRGCAYVCMVHRQDAFRALQKLSSGSYKIGSKVIKIAWALNKGVKTEYKQFWDVDLGVTYIPWEKVKVDDLEGFAEGGMIDQETVNTEWETVKSSEPVKETVQTTQSPTPVEKETVVTTQAEVFPPPVAMLQIPVAPAVPTVSLVPPAFPVSMPVPPPGFSPIPPPPFLRASFNPSQPPPGFMPPPVPPPVVPPPTIPPVVPTSLVQPSLSMTPETVKDVGFGSLVIPGGSVASNLATSALPAGNVFNAPTKQAEPEEKVPHLIDHQISSGENTRSVIPNDISSNAAILGGQPPNVTSNSGILGVQRPNVSSNSEILGVRPSNVSSSSGIIAAQPPNILNNSGILGIQPPSVSNSSGLLGVLPPNIPNNSGLVGVQPPNVPNTPGLLGTQPPAGPQNLPPLSIPNQRMPTMPMLDIRPGLIPQAPGPRFPLIQPGIPPQRGIPPPSVLDSALHPPPRGPFPPGDIFSQPERPFLAPGRQSVDNVTNPEKRIPLGNDNIQQEGDRDYRFPPIETRESISRPPPVDVRDVVGRPIDPREGPGRPPLDGRDHFGRPPVDIRENLVRPGIDHLGRRDHFGFNPEKPWGHRGDFDEREHRVLPVYGGPKGLHEERGRFRSGNYRFDPRSGPWNRGFGQEVHRDFDDRRRPWERQRDRDDRDFDFCREMNGNRLGRDRIQNTWVPPPHARVFDYFEGATSQRKGDNVPQVNGENTERHAQPPPIPVQNDPELYEKLTSSNEINKEKSDTVADIESEPVVESTETEGT"}, "B2": {"name": "DDX3Y (protein, UniProt O15523 2-660, looked up)", "ATP-dependent RNA helicase …": "SHVVVKNDPELDQQLANLDLNSEKQSGGASTASKGRYIPPHLRNREASKGFHDKDSSGWSCSKDKDAYSSFGSRDSRGKPGYFSERGSGSRGRFDDRGRSDYDGIGNRERPGFGRFERSGHSRWCDKSVEDDWSKPLPPSERLEQELFSGGNTGINFEKYDDIPVEATGSNCPPHIENFSDIDMGEIIMGNIELTRYTRPTPVQKHAIPIIKGKRDLMACAQTGSGKTAAFLLPILSQIYTDGPGEALKAVKENGRYGRRKQYPISLVLAPTRELAVQIYEEARKFSYRSRVRPCVVYGGADIGQQIRDLERGCHLLVATPGRLVDMMERGKIGLDFCKYLVLDEADRMLDMGFEPQIRRIVEQDTMPPKGVRHTMMFSATFPKEIQMLARDFLDEYIFLAVGRVGSTSENITQKVVWVEDLDKRSFLLDILGATGSDSLTLVFVETKKGADSLEDFLYHEGYACTSIHGDRSQRDREEALHQFRSGKSPILVATAVAARGLDISNVRHVINFDLPSDIEEYVHRIGRTGRVGNLGLATSFFNEKNMNITKDLLDLLVEAKQEVPSWLENMAYEHHYKGGSRGRSKSNRFSGGFGARDYRQSSGSSSSGFGASRGSSSRSGGGGYGNSRGFGGGGYGGFYNSDGYGGNYNSQGVDWWGN"}, "B3": {"name": "BCAS2 (protein, UniProt O75934 2-225, looked up)", "Pre-mRNA-splicing factor SPF27": "AGTGLVAGEVVVDALPYFDQGYEAPGVREAAAALVEEETRRYRPTKNYLSYLTAPDYSAFETDIMRNEFERLAARQPIELLSMKRYELPAPSSGQKNDITAWQECVNNSMAQLEHQAVRIENLELMSQHGCNAWKVYNENLVHMIEHAQKELQKLRKHIQDLNWQRKNMQLTAGSKLREMESNWVSLVSKNYEIERTIVQLENEIYQIKQQHGEANKENIRQDF"}, "B4": {"name": "RRP15 (protein, UniProt Q9Y3B9 2-282, looked up)", "RRP15-like protein": "AAAAPDSRVSEEENLKKTPKKKMKMVTGAVASVLEDEATDTSDSEGSCGSEKDHFYSDDDAIEADSEGDAEPCDKENENDGESSVGTNMGWADAMAKVLNKKTPESKPTILVKNKKLEKEKEKLKQERLEKIKQRDKRLEWEMMCRVKPDVVQDKETERNLQRIATRGVVQLFNAVQKHQKNVDEKVKEAGSSMRKRAKLISTVSKKDFISVLRGMDGSTNETASSRKKPKAKQTEVKSEEGPGWTILRDDFMMGASMKDWDKESDGPDDSRPESASDSDT"}, "B5": {"name": "FKBP8 (protein, UniProt Q14318 1-412, looked up)", "Peptidyl-prolyl cis-trans …": "MASCAEPSEPSAPLPAGVPPLEDFEVLDGVEDAEGEEEEEEEEEEEDDLSELPPLEDMGQPPAEEAEQPGALAREFLAAMEPEPAPAPAPEEWLDILGNGLLRKKTLVPGPPGSSRPVKGQVVTVHLQTSLENGTRVQEEPELVFTLGDCDVIQALDLSVPLMDVGETAMVTADSKYCYGPQGRSPYIPPHAALCLEVTLKTAVDGPDLEMLTGQERVALANRKRECGNAHYQRADFVLAANSYDLAIKAITSSAKVDMTFEEEAQLLQLKVKCLNNLAASQLKLDHYRAALRSCSLVLEHQPDNIKALFRKGKVLAQQGEYSEAIPILRAALKLEPSNKTIHAELSKLVKKHAAQRSTETALYRKMLGNPSRLPAKCPGKGAWSIPWKWLFGATAVALGGVALSVVIAARN"}, "B6": {"name": "SLC1A3 (protein, UniProt P43003 1-542, looked up)", "Excitatory amino acid …": "MTKSNGEEPKMGGRMERFQQGVRKRTLLAKKKVQNITKEDVKSYLFRNAFVLLTVTAVIVGTILGFTLRPYRMSYREVKYFSFPGELLMRMLQMLVLPLIISSLVTGMAALDSKASGKMGMRAVVYYMTTTIIAVVIGIIIVIIIHPGKGTKENMHREGKIVRVTAADAFLDLIRNMFPPNLVEACFKQFKTNYEKRSFKVPIQANETLVGAVINNVSEAMETLTRITEELVPVPGSVNGVNALGLVVFSMCFGFVIGNMKEQGQALREFFDSLNEAIMRLVAVIMWYAPVGILFLIAGKIVEMEDMGVIGGQLAMYTVTVIVGLLIHAVIVLPLLYFLVTRKNPWVFIGGLLQALITALGTSSSSATLPITFKCLEENNGVDKRVTRFVLPVGATINMDGTALYEALAAIFIAQVNNFELNFGQIITISITATAASIGAAGIPQAGLVTMVIVLTSVGLPTDDITLIIAVDWFLDRLRTTTNVLGDSLGAGIVEHLSRHELKNRDVEMGNSVIEENEMKKPYQLIAQDNETEKPIDSETKM"}, "B7": {"name": "KRT78 (protein, UniProt Q8N1N4 1-520, looked up)", "Keratin, type II cytoskeletal …": "MSLSPCRAQRGFSARSACSARSRGRSRGGFSSRGGFSSRSLNSFGGCLEGSRGSTWGSGGRLGVRFGEWSGGPGLSLCPPGGIQEVTINQNLLTPLKIEIDPQFQVVRTQETQEIRTLNNQFASFIDKVRFLEQQNKVLETKWHLLQQQGLSGSQQGLEPVFEACLDQLRKQLEQLQGERGALDAELKACRDQEEEYKSKYEEEAHRRATLENDFVVLKKDVDGVFLSKMELEGKLEALREYLYFLKHLNEEELGQLQTQASDTSVVLSMDNNRYLDFSSIITEVRARYEEIARSSKAEAEALYQTKYQELQVSAQLHGDRMQETKVQISQLHQEIQRLQSQTENLKKQNASLQAAITDAEQRGELALKDAQAKVDELEAALRMAKQNLARLLCEYQELTSTKLSLDVEIATYRRLLEGEECRMSGECTSQVTISSVGGSAVMSGGVGGGLGSTCGLGSGKGSPGSCCTSIVTGGSNIILGSGKDPVLDSCSVSGSSAGSSCHTILKKTVESSLKTSITY"}}, "system": "mSWI/SNF complexes", "assay": "mSWI/SNF complex purification with HA-tagged baits and mass spectrometry (peptide counts)", "design": "species or system human", "settings": "293_HA-BRD7 bait purification, mass spectrometry; for Total: total peptide count per identified protein; for Unique: unique peptide count per identified protein"}
{"molecule": "B1", "values": [{"measurement": "Total", "value": 1}, {"measurement": "Unique", "value": 1}]}
{"molecule": "B2", "values": [{"measurement": "Total", "value": 1}, {"measurement": "Unique", "value": 1}]}
{"molecule": "B3", "values": [{"measurement": "Total", "value": 1}, {"measurement": "Unique", "value": 1}]}
{"molecule": "B4", "values": [{"measurement": "Total", "value": 1}, {"measurement": "Unique", "value": 1}]}
{"molecule": "B5", "values": [{"measurement": "Total", "value": 1}, {"measurement": "Unique", "value": 1}]}
{"molecule": "B6", "values": [{"measurement": "Total", "value": 1}, {"measurement": "Unique", "value": 1}]}
{"molecule": "B7", "values": [{"measurement": "Total", "value": 1}, {"measurement": "Unique", "value": 1}]}
